The results in this text go back to paper PMC12087091.

Sequences of proteins named here, by UniProt entry; tags and fusion partners are left off.
UniProt P17174: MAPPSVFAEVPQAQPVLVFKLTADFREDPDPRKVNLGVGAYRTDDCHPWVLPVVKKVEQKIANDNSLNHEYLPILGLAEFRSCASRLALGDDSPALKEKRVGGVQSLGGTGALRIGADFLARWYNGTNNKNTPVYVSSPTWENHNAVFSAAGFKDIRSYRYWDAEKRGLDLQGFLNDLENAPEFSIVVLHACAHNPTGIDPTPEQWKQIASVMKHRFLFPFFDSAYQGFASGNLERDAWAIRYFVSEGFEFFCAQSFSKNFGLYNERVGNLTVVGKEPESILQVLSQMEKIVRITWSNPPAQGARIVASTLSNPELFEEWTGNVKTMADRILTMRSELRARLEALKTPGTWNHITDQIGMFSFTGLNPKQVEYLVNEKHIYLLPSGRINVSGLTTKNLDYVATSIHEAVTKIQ
UniProt P45974: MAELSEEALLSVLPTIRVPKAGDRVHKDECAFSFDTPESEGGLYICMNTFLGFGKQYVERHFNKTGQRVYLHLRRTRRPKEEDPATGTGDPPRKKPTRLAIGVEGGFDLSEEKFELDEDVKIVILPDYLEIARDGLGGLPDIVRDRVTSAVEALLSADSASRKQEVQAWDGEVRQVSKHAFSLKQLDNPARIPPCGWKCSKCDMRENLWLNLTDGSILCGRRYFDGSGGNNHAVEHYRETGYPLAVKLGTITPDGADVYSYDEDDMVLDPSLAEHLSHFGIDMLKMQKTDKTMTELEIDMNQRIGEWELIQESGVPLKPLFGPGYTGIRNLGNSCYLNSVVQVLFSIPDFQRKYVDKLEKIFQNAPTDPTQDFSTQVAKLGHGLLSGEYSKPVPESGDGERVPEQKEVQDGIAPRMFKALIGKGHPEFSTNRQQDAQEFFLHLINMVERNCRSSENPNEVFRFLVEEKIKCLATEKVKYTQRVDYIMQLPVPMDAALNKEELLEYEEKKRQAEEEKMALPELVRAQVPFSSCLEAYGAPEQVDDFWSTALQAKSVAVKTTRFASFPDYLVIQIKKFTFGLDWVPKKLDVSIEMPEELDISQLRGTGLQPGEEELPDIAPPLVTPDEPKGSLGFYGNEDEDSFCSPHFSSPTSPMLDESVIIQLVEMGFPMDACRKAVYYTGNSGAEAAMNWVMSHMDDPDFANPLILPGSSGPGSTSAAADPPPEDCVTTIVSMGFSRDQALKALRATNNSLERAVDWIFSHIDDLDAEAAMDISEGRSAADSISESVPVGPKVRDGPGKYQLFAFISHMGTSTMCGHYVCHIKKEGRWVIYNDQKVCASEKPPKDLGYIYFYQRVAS

These are yes or no findings as the source states them, for the method shown. Binding seen in cells or lysates may run through a third protein. Here binding means that the protein was enriched with, or labelled near, the bait; the list need not be complete.

Assay [1] has as its target T1, Annexin A1 (ANXA1), endogenous (human (endogenous in HUCCT1 and HCCC9810)) (UniProt P04083).
T1 sequence: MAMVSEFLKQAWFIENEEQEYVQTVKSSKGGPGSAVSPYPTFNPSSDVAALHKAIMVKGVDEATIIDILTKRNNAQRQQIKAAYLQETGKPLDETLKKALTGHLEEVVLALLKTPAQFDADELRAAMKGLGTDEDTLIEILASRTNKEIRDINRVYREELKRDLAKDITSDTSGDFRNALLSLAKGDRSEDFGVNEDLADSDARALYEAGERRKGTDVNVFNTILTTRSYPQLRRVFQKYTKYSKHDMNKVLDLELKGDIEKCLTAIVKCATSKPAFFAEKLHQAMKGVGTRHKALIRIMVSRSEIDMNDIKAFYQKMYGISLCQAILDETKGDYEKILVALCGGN
Description: affinity purification with mass spectrometry; IP of ANXA1 from cell lysate with antibody-conjugated magnetic beads, SDS-PAGE, bands excised, trypsin digestion, MS; cell line not stated.

For assay [2], the target named is Glutamic-oxaloacetic transaminase 1 (GOT1), endogenous (human (endogenous in HUCCT1 and HCCC9810)) (UniProt P17174). Description: affinity purification with mass spectrometry; IP with GOT1 as the bait protein from cell lysate with antibody-conjugated magnetic beads, SDS-PAGE, trypsin digestion, MS; cell line not stated.

With “Glutamic-oxaloacetic transaminase 1 (GOT1), endogenous (from UniProt P17174 1-413) (enzyme)”, the binding entry in assay [1] is listed as “binds”.
“Ubiquitin-specific protease 5 (USP5), endogenous (from UniProt P45974 1-858) (enzyme)”: the binding entry in assay [1] and in assay [2] was “binds” each time.

B1: Annexin A1 (ANXA1), endogenous (protein, UniProt P04083 1-346)
chain: T1 sequence
Turning to B1, in assay [2], the binding entry is on record as “binds”.
